Source: US20220168402A1, “PIP4Ks SUPPRESS INSULIN SIGNALING AND ENHANCE IMMUNE FUNCTION THROUGH A CATALYTIC-INDEPENDENT MECHANISM” (Cornell University, priority 2019, published 2022)
Results are given in words; binding and its absence hold for the method and conditions named. Binding seen in cells or lysates may run through a third protein. Some results given as binding are weak or reduced against the parent protein; the word gives no strength. Tags and fused reporters may be left off the sequences shown.

The chains behind the UniProt entries cited, without tags or fusion partners.
UniProt Q99755: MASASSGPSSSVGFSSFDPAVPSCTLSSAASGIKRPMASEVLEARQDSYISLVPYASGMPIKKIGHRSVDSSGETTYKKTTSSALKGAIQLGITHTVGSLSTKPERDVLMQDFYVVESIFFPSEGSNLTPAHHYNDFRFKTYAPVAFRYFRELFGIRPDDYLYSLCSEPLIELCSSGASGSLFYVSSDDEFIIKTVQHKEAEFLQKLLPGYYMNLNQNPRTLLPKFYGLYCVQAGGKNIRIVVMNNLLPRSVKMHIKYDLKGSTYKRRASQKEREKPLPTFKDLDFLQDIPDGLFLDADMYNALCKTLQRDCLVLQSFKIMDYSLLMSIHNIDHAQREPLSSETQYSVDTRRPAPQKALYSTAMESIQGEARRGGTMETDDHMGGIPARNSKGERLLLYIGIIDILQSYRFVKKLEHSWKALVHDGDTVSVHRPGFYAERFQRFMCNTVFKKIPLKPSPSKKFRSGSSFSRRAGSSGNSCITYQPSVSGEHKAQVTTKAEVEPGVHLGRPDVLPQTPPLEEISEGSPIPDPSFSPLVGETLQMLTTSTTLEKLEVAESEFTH

Tests used:
[1] = target: endogenous PIP5K1A (293T lysate) (UniProt Q99755); test: GST pulldown from 293T lysates, GST-PIP4K2C beads as bait, western blot (FIG. 3J)
[2] = target: endogenous PIP5K1A (293T lysate) (UniProt Q99755); test: GST pulldown from 293T lysates, GST or GST-PIP4K2C beads as bait, western blot (FIG. 3G)
[3] = target: endogenous PIP5K1A (293T lysate) (UniProt Q99755); test: GST pulldown from 293T lysates, western blot of pulldown and flow-through (FIG. 3G-3H)

- binding [1]: binds
- binding [2]: binds
- binding [3]: binds
B1: GST-PIP4K2C (enzyme, not shown: a dimerising Fc or GST)
chain: MASSSVPPATVSAATAGPGPGFGFASKTKKKHFVQQKVKVFRAADPLVGVFLWGVAHSINELSQVPPPVMLLPDDFKASSKIKVNNHLFHRENLPSHFKFKEYCPQVFRNLRDRFGIDDQDYLVSLTRNPPSESEGSDGRFLISYDRTLVIKEVSSEDIADMHSNLSNYHQYIVKCHGNTLLPQFLGMYRVSVDNEDSYMLVMRNMFSHRLPVHRKYDLKGSLVSREASDKEKVKELPTLKDMDFLNKNQKVYIGEEEKKIFLEKLKRDVEFLVQLKIMDYSLLLGIHDIIRGSEPEEEAPVREDESEVDGDCSLTGPPALVGSYGTSPEGIGGYIHSHRPLGPGEFESFIDVYAIRSAEGAPQKEVYFMGLIDILTQYDAKKKAAHAAKTVKHGAGAEISTVHPEQYAKRFLDFITNIFA
